Some of the results follow.
B1: il10ra_site1_sap_21_mot_39ab2cb694c8b9c1dc7e65c0d672c93e_0001_000000036_0001_53_65_H_._HHH_b1_04427_0001_0000100002_0000001_0_0001 (protein)
chain: SSSSDLAQEAAHLSLEAFRLALRGDPEEAEEVLREAEELAERAGDERLLKQIRNLLKAQKSSSSS
B2: il10ra_site1_sap_8_mot_05ca327611f5605f0dd8494b449afcbf_0001_1_000000248_0001_35_51_H_._HHH_b1_07641_0001_0000300015_0000002_0_0001_af2pred_0001 (protein)
chain: SSSSSSSELERLLEEIEEALERGDPQEALKLSREAARLAAELNDKEVLKILAELLREIFSSSSSS
B3: il10ra_site1_sap_24_mot_HHH_b1_06914_000000280_0001_1_18_H_._HHH_b1_06388_0001_0000100003_0000002_0_0001 (protein)
chain: SSSSLEERVVELAFEAVELLANGNPEEAEEVLEEARELAEELNDEELRRYVEIAEHFVKSHSSSS
B4: il10ra_site1_normal_mot_HHH_b2_04168_af2_000000050_0001_1_20_H_._0831bd5750e541fe76d95d22628dacf8_0001_0001_0000500006_0000001_0 (protein)
chain: SEVEELAEEAKRKNDADLAFKAFKVLLQELLKRGIPPERAKEIALEVARELGNPYLERLAEASLL
B5: il10ra_site1_sap_14_mot_HHH_b1_06788_af2_000000238_0001_19_36_H_._HHH_b1_00610_0001_0000500077_0000001_0_0001_af2pred_0001 (protein)
chain: SSSSSEILREVSYLLIRAYALASQGNPEEAEKVLEEARELAEENNDERARLSVELLEEFLSSSSS
B6: il10ra_site1_normal_mot_HHH_b2_00475_000000107_0001_44_57_H_._HHH_b1_04904_0002_0000200015_0000002_0 (protein)
chain: SSSSDIIEVLYRLQHAVAKGDEEEIEELLEELEELLKKASEEERKYIEILLHFARAQLELLSSSS
B7: il10ra_site1_normal_mot_HHH_b2_07521_000000141_0001_20_37_H_._HHH_b2_00616_0001_0000500010_0000001_0 (protein)
chain: SSSSDEAERAVRRILEAAERAYELGDEEYVRLSLRFAKFLARAANDPEAERLVEEVEERLSSSSS
B8: il10ra_site1_normal_mot_ems_3hC_551_000000072_0001_1_18_H_._HHH_b2_07452_af2_0001_0000100004_0000002_0_af2pred_0001 (protein)
chain: SSSSSDEELVRLALRFAKFLLKYGDKESAENAVRSAQKLAEEGGNEELVEELEELEKQIKSSSSS
B9: il10ra_site1_sap_15_mot_HHH_b1_04905_af2_000000228_0001_1_17_H_._HHH_b1_05842_af2_0001_0000500008_0000002_0_0001_af2pred_0001 (protein)
chain: SSSSNDIERALEILIEAIEELLEQGDKERARLTVEIARRLAEDAGNEELLEILEELHELINSSSS
B10: il10ra_site1_normal_mot_HHH_b1_00456_000000263_0001_1_17_H_._HHH_b2_05705_af2_0001_0000300009_0000001_0_af2pred_0001 (protein)
chain: SSSSSSDEEEVEKLLEEAEHISDEREAAYVLVRAFAIALRLGDPELERLVKEVAQKLLSSSSSSS
B11: il10ra_site1_sap_16_mot_HHH_b2_07442_000000239_0001_40_54_H_._HHH_b2_00342_af2_0001_0000100001_0000001_0_0001_af2pred_0001 (protein)
chain: SSSADTEESLKLFLRFVEEALRRGDPERARLSLRFAKFLAEQAGNEELLRELERLEEELENSSSS
B12: il10ra_site1_normal_mot_HHH_b2_03328_af2_000000127_0001_1_19_H_._f3d5fbb9806109dc41c8faca98c9de00_0001_1_0001_0000300008_0000002_0_af2pred_dldesign_0_af2pred (protein)
chain: LELSRLLSDAVITAKNPELAQRLAEVAREIAEDPSKLEELLAELLEEAKAAGDEEVVALLEKALE
B13: il10ra_site1_sap_19_mot_HHH_b1_02997_000000220_0001_39_52_H_._HHH_b1_04476_0001_0000300011_0000001_0_0001 (protein)
chain: SSSSSAAHRAYELLRRAMELMDEGNPEEAEELLEEAEELLREAGDRVILHNVEYVLRKLNSSSSS
B14: il10ra_site1_sap_21_mot_HHH_b2_06321_af2_000000133_0001_22_38_H_._HHH_b2_05043_0001_0000300054_0000003_0_0001 (protein)
chain: SSSSSSSAKEEAEELLEEAREIEDKHEATRLLYRAARLAAKAHDDELIKEIMEVFARLSSSSSSS
B15: il10ra_site1_sap_13_mot_HHH_b1_03478_af2_000000027_0001_1_18_H_._HHH_b1_08739_0001_0000100006_0000001_0_0001 (protein)
chain: SSDRHQEFFRVVKEAIEAASDNDEEEAEELVKEAEKIAEEIGDRIAKMIVKFVKELVEKLRSSSS
B16: il10ra_site1_normal_mot_HHH_b1_04065_000000255_0001_41_56_H_._HHH_b1_08168_0001_0000400026_0000001_0_af2pred_0001 (protein)
chain: SSSSSEEEELEELLEKLEKLAEEGDEEKFLQLFVRVSKLAHEAKDEEIARLLDELAREFFSSSSS
B17: il10ra_site1_normal_mot_HHH_b2_02337_000000026_0001_38_52_H_._HHH_b2_04339_af2_0001_0000100005_0000001_0 (protein)
chain: SSSSSDEEELKELIEEIEELLENGNPEEASELAQRAVQLAFELQDQEALQRLWELVQLAGSSSSS
B18: il10ra_site1_sap_13_mot_HHH_b2_07690_000000074_0001_19_35_H_._HHH_b1_01657_0001_0000200021_0000001_1_0001 (protein)
chain: SSSSSDEEELAEALERIIQQLLEWGDPEAARMHILALEMLAEELNDPELERLVEELKELLSSSSS
B19: il10ra_site1_normal_mot_HHH_b2_08186_000000021_0001_43_56_H_._HHH_b1_08292_af2_0001_0000300010_0000002_0 (protein)
chain: SSSSSSEEEEEVERLLEELEKIKDREEFLRLAQEILRLIFELGNDELLQRLWEILKKSHSSSSSS
B20: il10ra_site1_normal_mot_8756ee2cf497b5429c717dfc0c0bcfd6_0001_000000186_0001_1_13_H_._HHH_b1_07051_af2_0001_0000100003_0000001_0_af2pred_0001 (protein)
chain: SSSTKATEVARILRKAIELLSDGDKEEAERLVREAEELAEEINNEALRVIIEFLERLIRRLSSSS
B21: il10ra_site1_sap_14_mot_HHH_b1_06339_000000020_0001_43_57_H_._HHH_b1_01166_0001_0000100001_0000001_0_0001 (protein)
chain: SSSSSSQEVMKLIREAVELLQQGDPEEAEKVAEEAVELARELGNWVLRFAAEHLLRDIENSSSSS
B22: il10ra_site1_normal_mot_8756ee2cf497b5429c717dfc0c0bcfd6_0001_000000186_0001_1_13_H_._HHH_b1_02199_af2_0001_0000500036_0000003_0_af2pred_0001 (protein)
chain: SSSSSLSQRILELLRRAAELLREGDPEEAEELIREAEELAEEANNLAAQAVIKFMLKIVNSSSSS
B23: il10ra_site1_sap_18_mot_HHH_b2_04679_000000194_0001_21_38_H_._HHH_b1_05122_0001_0000300011_0000001_0_0001 (protein)
chain: SSSSSSIIRIAQEAIRLAIQLGDEETFQEIWRLAKEYKETGDPRIEEELEELLEELERRGSSSSS
B24: il10ra_site1_normal_mot_HHH_b2_03418_af2_000000231_0001_1_17_H_._HHH_b1_05635_0001_0000300018_0000002_0 (protein)
chain: SSSSDEEVEELLERAEELLERGDLKEAAEVITKAWILALRLRDQELARLAAELAQIANELQSSSS
B25: il10ra_site1_sap_16_mot_HHH_b1_02997_000000220_0001_39_52_H_._HHH_b2_05611_af2_0001_0000400043_0000002_0_0001_af2pred_0001 (protein)
chain: SSSSSEAARIAHEVAEEVAKLREEGDEEEARRLLEEALERLEELNNPLAAHNIRHLLRDLESSSS
B26: il10ra_site1_sap_31_mot_HHH_b1_01879_000000050_0001_1_18_H_._HHH_b2_03374_0001_0000100006_0000002_0_0001 (protein)
chain: SSSSSESEEAYRLLREAMELIDDGNPEEARKVLEEAEELAEEGNNPLILRQLEFVKRDLEGSSSS
B27: il10ra_site1_normal_mot_HHH_b1_06994_000000193_0001_40_55_H_._HHH_b1_03771_0001_0000300019_0000001_0 (protein)
chain: SSSSSQEEELLRALERLIEQALEAGNPRAAKFLIWAAKLLAKELGDEETLEELEELEKRVDSSSS
B28: il10ra_site1_normal_mot_HHH_b1_02809_af2_000000277_0001_40_57_H_._HHH_b2_00812_0001_0000300019_0000001_0 (protein)
chain: SSSSSREEASRLFVEAARALQEGDREEAEELLEELRELVEELGDKRLELSLRFLEALVRFLSSSS
B29: il10ra_site1_normal_mot_HHH_b2_02725_000000049_0001_1_17_H_._HHH_b2_00579_0001_0000300016_0000001_0 (protein)
chain: SSSSSDDELYKEVKELLEEATEIEDPEERREVLEEAKELAEELGNEALLHAVEYLERIQSSSSSS
B30: il10ra_site1_normal_mot_HHH_b2_03708_000000000_0001_1_18_H_._HHH_b2_04055_af2_0001_0000300024_0000001_0 (protein)
chain: SSSSDERQRLSELLLEAFRLALRGNPEEARELLEEAEELAEKLGDEEIARLVRDLLQALHSSSSS
B31: il10ra_site1_normal_mot_HHH_b1_03031_af2_000000117_0001_17_33_H_._HHH_b1_04343_af2_0001_0000100002_0000002_0_af2pred_0001 (protein)
chain: SSSDEEVEERAEEVLLEAIFLAARKRNHEAVYRLLEIYARIAQEGDPELLKELEKLLEELRSSSS
B32: il10ra_site1_sap_22_mot_HHH_b2_06812_af2_000000299_0001_41_56_H_._44e4ab65238a46b1c89eac5211a0a491_0001_1_0001_0000400022_0000001_0_0001 (protein)
chain: SSSSDVEEEIEELLREAKKLAENGNPERATHLIIEAYALADQNNNEELREEVAELLRRLLDSSSS
B33: il10ra_site1_sap_21_mot_HHH_b2_03220_af2_000000223_0001_23_40_H_._HHH_b1_04435_af2_0001_0000200016_0000001_0_0001 (protein)
chain: SSSSTLEFSVKFALRTAEHAFRAGDEERARAQLEAILEHIKQAGDDELLREVQELLEELNSSSSS
B34: il10ra_site1_normal_mot_HHH_b1_07478_000000026_0001_21_37_H_._ems_3hC_921_0001_0001_0000100012_0000001_0 (protein)
chain: SSPEEAEKLLEEAEKLAEELNDKNALFIVKSLKKVLERAEENNDERAVELVEEAARVLLEQLQSS
B35: il10ra_site1_normal_mot_HHH_b1_03094_000000294_0001_1_20_H_._HHH_b1_07059_af2_0001_0000100004_0000003_0 (protein)
chain: SSSSSEELEELLRLSLEAFRLALRGDHEEARHLLEEALRIAEELGNERAVRVIEELLEAQSSSSS
B36: il10ra_site1_sap_12_mot_2e6e1eda43ba67e2c9eb6e09d05f5a85_0001_000000079_0001_1_12_H_._HHH_eva_0086_0001_0000300018_0000001_0_0001 (protein)
chain: DLEELVELLLEHARTANDEEVQRLIEEVLRLLKEDPEKAEELAEEALERTGNLILWQLLFLIRRH
B37: il10ra_site1_sap_27_mot_HHH_b2_06864_af2_000000190_0001_1_20_H_._HHH_b2_06460_0001_0000200027_0000002_0_0001_af2pred_0001 (protein)
chain: SSSSSDEEERKRALELLLIASRLGDKELAERLLRLAAKYLREGDPRYVEEMEELVEEVKKSSSSS

These binders were tested against il10ra, Q13651 (assay: yeast display titration).

Apparent Kd, inactive:
B1 no binding seen
B2 no binding seen
B3 no binding seen
B4 no binding seen
B5 no binding seen
B6 no binding seen
B7 no binding seen
B8 no binding seen
B9 no binding seen
B10 no binding seen
B11 no binding seen
B12 no binding seen
B13 no binding seen
B14 > 305 nM
B15 no binding seen
B16 no binding seen
B17 no binding seen
B18 no binding seen
B19 no binding seen
B20 no binding seen
B21 no binding seen
B22 no binding seen
B23 no binding seen
B24 no binding seen
B25 no binding seen
B26 no binding seen
B27 no binding seen
B28 no binding seen
B29 no binding seen
B30 no binding seen
B31 no binding seen
B32 no binding seen
B33 no binding seen
B34 no binding seen
B35 no binding seen
B36 no binding seen
B37 no binding seen

Two consecutive entries out of the list so far, for reference:
Apparent Kd, inactive:
B7 no binding seen
B8 no binding seen

Reference: PMC10163288
